In patent US20170306303A1 (University of California, published 2017):

Molecular target: p29 bCW505 ON-switch CAR part 2 with human ER alpha LBD w Y537F G521R
Assay: cell-based or functional assay

CD69 upregulation in Jurkat cells (flow cytometry, 24 hours of co-culture with K562 target cells); the EC50 is that of the dimerizer 4-hydroxytamoxifen: ~100 nM
B1: p26 bCW502 myc aCD19 ON-switch part 1 with 3x CoRNR peptide and 4-1BB (receptor)
chain: EQKLISEEDLDIQMTQTTSSLSASLGDRVTISCRASQDISKYLNWYQQKPDGTVKLLIYHTSRLHSGVPSRFSGSGSGTDYSLTISNLEQEDIATYFCQQGNTLPYTFGGGTKLEITGGGGSGGGGSGGGGSEVKLQESGPGLVAPSQSLSVTCTVSGVSLPDYGVSWIRQPPRKGLEWLGVIWGSETTYYNSALKSRLTIIKDNSKSQVFLKMNSLQTDDTAIYYCAKHYYYGGSYAMDYWGQGTSVTVSSTTTPAPRPPTPAPTIASQPLSLRPEACRPAAGGAVHTRGLDFACDIYIWAPLAGTCGVLLLSLVITLYCSLKRGRKKLLYIFKQPFMRPVQTTQEEDGCSCRFPEEEEGGCELSRGSGSGSTSDAFQLRQLILRGLQDDGGGSGGGSDAFQLRQLILRGLQDDGGGSGGGSDAFQLRQLILRGLQDDGS
